Results deposited as PubChem BioAssay AID720505 (Drosophila RNAi Screening Center, 2013)

- Test: 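Knock-downs that reduce calcium influx once internal stores are emptied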 (primary screen)
- System: Drosophila S2R+ cells
- Reagents: long dsRNA against Drosophila genes
- Conditions: thapsigargin (2 µM) in calcium-free buffer to empty internal stores, then 2 mM calcium added back
- Detection: 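Stores emptied by 2 µM thapsigargin without calcium, then 2 mM calcium re-added; fluo-4 fluorescence followed by FLIPR in 384-well plates, per-well averaged endpoint, raw; two screen passes, some wells retested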
- Reading the numbers: calcium signal and retest calcium signal: higher = more calcium entry after store depletion
- Hit rule: 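About 1500 genes called as lowering calcium entry, by varying amounts, judged against per-plate control wells with STIM1 as positive and Rho1 as negative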
- Calls: active = called as lowering calcium entry; inactive = not called
In all, the deposit lists about 20,000 reagents; below is a random part of those with a known target gene and a result. Over the whole deposit, about 2,100 (10%) are marked active. 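Raw plate signals without normalisation; calls rest on control-based scores that were not deposited; replicate 2 separates called from uncalled poorly.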 Names joined by + are all predicted targets of the reagent. Reagent sequences are not shown. The record does not give: the amount of reagent, the time to read-out.

gene	DRSC id	calcium signal, replicate 1	calcium signal, replicate 2	retest calcium signal, replicate 1	retest calcium signal, replicate 2	activity call
ksr (kinase suppressor of ras)	DRSC12379	102	137			inactive
MTPAP (mitochondrial poly(A) polymerase)	DRSC18585	106	110			inactive
Nmdar2 (NMDA receptor 2)	DRSC18183	92.8	130			inactive
Nmdar2 (NMDA receptor 2)	DRSC18511	93.4	119			inactive
Nmdar2 (NMDA receptor 2)	DRSC18569	94.3	135			inactive
CG14006	DRSC02338	167	95.7			inactive
Atg10 + CG12822	DRSC06796	58.4	109			active
CR10102 (pseudo)	DRSC05963	83.3	103			inactive
CG12253	DRSC02153	74.1	106			inactive
ken (ken and barbie)	DRSC04696	102	92.9			inactive
ken (ken and barbie)	DRSC23196	98.4	145			inactive
Fum3 (Fumarase 3)	DRSC10592	109	123			inactive
Tbh (Tyramine beta hydroxylase)	DRSC18723	189	160			inactive
ssp3 (short spindle 3)	DRSC02669	82.8	87.7			inactive
ssp3 (short spindle 3)	DRSC02670	104	97.7			inactive
Polr3D (RNA polymerase III subunit D)	DRSC10485	123	79.1			inactive
Ulp1	DRSC19339	177	131			inactive
dgrn (degringolade)	DRSC12154	146	142			inactive
CG13700	DRSC10049	90.7	174			inactive
Nlg2 (Neuroligin 2)	DRSC00957	83.7	120			inactive
Nlg2 (Neuroligin 2)	DRSC03578	170	123			inactive
CG9308	DRSC04539	168	105			inactive
ftz (fushi tarazu)	DRSC12626	88.1	129			inactive
CG15145	DRSC02446	106	139			inactive
CG16812	DRSC02519	128	91.5			inactive
Vha16-2 (Vacuolar H[+] ATPase 16kD subunit 2)	DRSC10873	86.6	105			inactive
CG15260	DRSC01977	111	97.4			inactive
LysD + LysC (retired record)	DRSC08674	59.7	96.6			inactive
LysD + LysC (retired record)	DRSC22743	113	214			inactive
CG43315	DRSC06296	99.2	137			inactive
hale (hale-bopp)	DRSC10882	103	103			inactive
onecut	DRSC17175	146	128			inactive
CG14687	DRSC14910	149	133	101	124	inactive
PIG-G (Phosphatidylinositol glycan anchor biosynthesis class G)	DRSC06823	177	74.5			inactive
CG4424	DRSC15576	212	207			inactive
Dys (Dystrophin)	DRSC15260	147	182			inactive
Dys (Dystrophin)	DRSC16218	167	151			inactive
Dys (Dystrophin)	DRSC16219	179	142			inactive
Dys (Dystrophin)	DRSC16220	142	173			inactive
Dys (Dystrophin)	DRSC16935	142	144			inactive
CG13386	DRSC02260	140	138			inactive
Dll (Distal-less)	DRSC04610	125	167			inactive
NijB (Ninjurin B)	DRSC09850	124	192			inactive
CG13978	DRSC14720	194	162			inactive
CG43861	DRSC02170	91.7	114			inactive
CG43861	DRSC02308	102	131			inactive
CG31664	DRSC22084	99.7	205			inactive
E(z) (Enhancer of zeste)	DRSC11147	69.1	113			active

The list goes on, starting with the last 2 of the part before.
gene	DRSC id	calcium signal, replicate 1	calcium signal, replicate 2	retest calcium signal, replicate 1	retest calcium signal, replicate 2	activity call
CG31664	DRSC22084	99.7	205			inactive
E(z) (Enhancer of zeste)	DRSC11147	69.1	113			active
TwdlS (TweedleS)	DRSC14737	109	143			inactive
CG31915	DRSC03000	114	129			inactive
dpr3 (defective proboscis extension response 3)	DRSC00395	99.4	145			inactive
dpr3 (defective proboscis extension response 3)	DRSC00396	91.2	127			inactive
dpr3 (defective proboscis extension response 3)	DRSC21369	66.5	105			active
Cubn (Cubilin)	DRSC18256	133	109			inactive
CG5003	DRSC15694	110	91.8			inactive
Cht5 (Chitinase 5)	DRSC16470	72.6	127	83.3	92.3	active
CG11902	DRSC14434	255	106	132	111	inactive
Elp2 (Elongator complex protein 2)	DRSC06095	192	144			inactive
Mob2	DRSC09856	120	158			inactive
Mob2	DRSC23274	92.3	92.7			inactive
CG34230	DRSC05317	62	109			inactive
AgmNAT (Agmatine N-acetyltransferase)	DRSC18072	156	124			inactive
CG7006	DRSC16169	164	253			inactive
Cox10 (Cytochrome c oxidase assembly factor 10)	DRSC02804	85.7	84.2			inactive
CG10063	DRSC09688	64.6	70.5			inactive
beat-IV (beaten path IV)	DRSC14195	161	309			inactive
beat-IV (beaten path IV)	DRSC14673	133	102			inactive
CG9593	DRSC16508	168	183			inactive
CG43376	DRSC02537	168	129			inactive
CG17637	DRSC11740	110	216			inactive
ltl (larval translucida)	DRSC10206	125	111			inactive
ltl (larval translucida)	DRSC10870	131	103			inactive
CG33160	DRSC08197	75.2	108			inactive
Pxn (Peroxidasin)	DRSC08685	78.9	74.1	102	107	active
Dtwd2 (DTW domain containing 2)	DRSC12501	84.6	167			inactive
Pebp1 (Phosphatidylethanolamine-binding protein 1)	DRSC15354	142	129			inactive
rols (rolling pebbles)	DRSC09873	67.8	101			active
rols (rolling pebbles)	DRSC10254	94.9	96.2			inactive
rols (rolling pebbles)	DRSC10536	104	85.7			inactive
niki (nimA-like kinase)	DRSC14285	134	82.7			inactive
CG3491	DRSC01934	117	158			inactive
eIF5 (eukaryotic translation initiation factor 5)	DRSC20165	97	104			inactive
CG16825	DRSC02526	91.6	118			inactive
CG8128	DRSC20084	142	144			inactive
CG10660	DRSC09769	69.5	81.7			active
RpL15 (Ribosomal protein L15)	DRSC20963	69.4	125			active
Elovl7 (ELOVL fatty acid elongase 7)	DRSC15452	88.2	142			inactive
Elovl7 (ELOVL fatty acid elongase 7)	DRSC21570	124	83.5			inactive
Cdc14 (Cell division cycle 14)	DRSC03013	100	162			inactive
CG13564	DRSC04201	92	169			inactive
ATPsynepsilonL (ATP synthase, epsilon subunit-like)	DRSC14548	70	89.5			active
Trxr2 (Thioredoxin reductase 2)	DRSC11900	89.6	112			inactive
Zasp52 (Z band alternatively spliced PDZ-motif protein 52)	DRSC06269	148	124			inactive
Zasp52 (Z band alternatively spliced PDZ-motif protein 52)	DRSC07121	114	130			inactive
CG18301	DRSC02662	166	114			inactive
Cog1 (Component of oligomeric golgi complex 1)	DRSC15661	94.4	113			inactive
L (Lobe)	DRSC06666	114	105			inactive
L (Lobe)	DRSC06668	94.7	143			inactive
Caper	DRSC02137	125	221			inactive
CG1231	DRSC08267	101	86.9			inactive
Iswi (Imitation SWI)	DRSC07446	79	135			inactive
CG10834	DRSC03693	107	100			inactive
Pk34A (Protein kinase at 34A)	DRSC03398	98.4	133			inactive
RpL17 (Ribosomal protein L17)	DRSC18293	121	88.4			inactive
CG11155	DRSC17205	102	156			inactive
Atf-2 + veg (retired record)	DRSC04130	240	82.8			inactive
Atf-2 + veg (retired record)	DRSC04413	62.9	100			inactive
